Measurements: publication PMC4613828 (PLoS Pathogens, 2015)

Legend:
in vitro [1] = settings: human
in vitro [2] = settings: human; remark: listed apart in the source
in vitro [3] = settings: African green monkey

Compound: CCON=Cc1ccc(OCCC(C)CCN2CCN(c3ccnc(N)c3)C2=O)cc1 (stereo not drawn) [NLD]
- CC50 (in vitro [1]): 20 ± 1 µM
- CC50 (in vitro [2]): 5 ± 1.1 µM
- CC50 (in vitro [3]): 17 ± 2 µM
